# In US20050222147A1, “Process for the preparation of morpholine derivatives and intermediates therefore” (priority 2000, published 2005):
# Some entries share one result that the patent states for a list of compounds.
# Target: T1, CCR-3 (Homo sapiens, UniProt P51677)
# T1 construct: expressed in transfected cells
# T1 sequence (P51677 1-355): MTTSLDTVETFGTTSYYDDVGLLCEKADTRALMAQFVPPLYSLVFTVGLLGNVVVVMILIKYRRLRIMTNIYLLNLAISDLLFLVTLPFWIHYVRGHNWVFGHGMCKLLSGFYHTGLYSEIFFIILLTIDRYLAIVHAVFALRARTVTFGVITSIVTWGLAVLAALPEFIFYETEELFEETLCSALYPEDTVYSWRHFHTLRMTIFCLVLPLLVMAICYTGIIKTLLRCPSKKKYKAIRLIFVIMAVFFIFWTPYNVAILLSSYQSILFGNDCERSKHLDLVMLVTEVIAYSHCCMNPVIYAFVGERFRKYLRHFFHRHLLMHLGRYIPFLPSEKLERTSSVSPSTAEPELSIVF
# Assay: CCR-3 competition binding SPA (scintillation proximity assay)
# Settings: inhibition of [125I] eotaxin binding to membranes from K562 cells stably expressing CCR-3
row,Compound,pIC50 value in CCR-3 binding assay (assay (a))
1,"CN(c1cccc(CC(=O)NCC2CN(Cc3ccc(Cl)c(Cl)c3)CCO2)c1)S(C)(=O)=O (stereo not shown) [Example 151, N-{[4-(3,4-dichlorobenzyl)morpholin-2-yl]methyl}-2-{3-[methyl(methylsulfonyl)amino]phenyl}acetamide]",greater than 5.0
2,"CS(=O)(=O)CCCC(=O)NC[C@H]1CN(Cc2ccc(Cl)c(Cl)c2)CCO1 [Example 152, N-{[(2S)-4-(3,4-dichlorobenzyl)morpholin-2-yl]methyl}-4-(methylsulfonyl)butanamide]",greater than 5.0
3,"Cc1ccc(-c2nc(CC(=O)NCC3CN(Cc4ccc(Cl)c(Cl)c4)CCO3)c(C)o2)s1 (stereo not shown) [Example 153, N-{[4-(3,4-dichlorobenzyl)morpholin-2-yl]methyl}-2-[5-methyl-2-(5-methylthien-2-yl)-1,3-oxazol-4-yl]acetamide]",greater than 5.0
4,"CS(=O)(=O)c1ccc(CC(=O)NCC2CN(Cc3ccc(Cl)c(Cl)c3)CCO2)c(N)c1 (stereo not shown) [Example 154, 2-[2-amino-4-(methylsulfonyl)phenyl]-N-{[4-(3,4-dichlorobenzyl)morpholin-2-yl]methyl}acetamide]",greater than 5.0
5,"Cc1oc(-c2cccs2)nc1CC(=O)NCC1CN(Cc2ccc(Cl)c(Cl)c2)CCO1 (stereo not shown) [Example 155, N-{[4-(3,4-dichlorobenzyl)morpholin-2-yl]methyl}-2-(5-methyl-2-thien-2-yl-1,3-oxazol-4-yl)acetamide]",greater than 5.0
6,"Cc1oc(-c2ccco2)nc1CC(=O)NCC1CN(Cc2ccc(Cl)c(Cl)c2)CCO1 (stereo not shown) [Example 156, N-{[4-(3,4-dichlorobenzyl)morpholin-2-yl]methyl}-2-[2-(2-furyl)-5-methyl-1,3-oxazol-4-yl]acetamide]",greater than 5.0
7,"C#CCCC(=O)NCC1CN(Cc2ccc(Cl)c(Cl)c2)CCO1 (stereo not shown) [Example 157, N-{[4-(3,4-dichlorobenzyl)morpholin-2-yl]methyl}pent-4-ynamide]",greater than 5.0
8,Cc1oc(-c2cccnc2)nc1CC(=O)NC[C@H]1CN(Cc2ccc(Cl)c(Cl)c2)CCO1 [Example 158],greater than 5.0
9,"Cc1oc(C(C)C)nc1CC(=O)NC[C@H]1CN(Cc2ccc(Cl)c(Cl)c2)CCO1 [Example 159, N-{[(2S)-4-(3,4-dichlorobenzyl)morpholin-2-yl]methyl}-2-(2-isopropyl-5-methyl-1,3-oxazol-4-yl)acetamide]",greater than 5.0
10,"CNS(=O)(=O)c1ccc(CC(=O)NC[C@H]2CN(Cc3ccc(Cl)c(Cl)c3)CCO2)cc1 [Example 160, N-{[(2S)-4-(3,4-dichlorobenzyl)morpholin-2-yl]methyl}-2-{4-[(methylamino)sulfonyl]phenyl}acetamide]",greater than 5.0
11,"CCNS(=O)(=O)c1ccc(CC(=O)NC[C@H]2CN(Cc3ccc(Cl)c(Cl)c3)CCO2)cc1 [Example 161, N-{[(2S)-4-(3,4-dichlorobenzyl)morpholin-2-yl]methyl}-2-{4-[(ethylamino)sulfonyl]phenyl}acetamide]",greater than 5.0
12,O=C(Cc1cccc(S(=O)(=O)NC2CC2)c1)NC[C@H]1CN(Cc2ccc(Cl)c(Cl)c2)CCO1 [Example 163],greater than 5.0
13,"CCNS(=O)(=O)c1cccc(CC(=O)NC[C@H]2CN(Cc3ccc(Cl)c(Cl)c3)CCO2)c1 [Example 164, N-{[(2S)-4-(3,4-dichlorobenzyl)morpholin-2-yl]methyl}-2-{3-[(ethylamino)sulfonyl]phenyl}acetamide]",greater than 5.0
14,"CNS(=O)(=O)c1cccc(CC(=O)NC[C@H]2CN(Cc3ccc(Cl)c(Cl)c3)CCO2)c1 [Example 165, N-{[(2S)-4-(3,4-dichlorobenzyl)morpholin-2-yl]methyl}-2-{3-[(methylamino)sulfonyl]phenyl}acetamide]",greater than 5.0
15,"Cc1oc(N2CCOCC2)nc1CC(=O)NC[C@H]1CN(Cc2ccc(Cl)c(Cl)c2)CCO1 [Example 166, N-{[(2S)-4-(3,4-dichlorobenzyl)morpholin-2-yl]methyl}-2-(5-methyl-2-morpholin-4-yl-1,3-oxazol-4-yl)acetamide]",greater than 5.0
16,"NS(=O)(=O)c1ccc(CC(=O)NCC2CN(Cc3ccc(Cl)c(Cl)c3)CCO2)cc1 (stereo not shown) [Example 167, 2-[4-(aminosulfonyl)phenyl]-N-{[4-(3,4-dichlorobenzyl)morpholin-2-yl]methyl}acetamide]",greater than 5.0
17,"O=C(Cc1ccc(S(=O)(=O)NC2CC2)cc1)NCC1CN(Cc2ccc(Cl)c(Cl)c2)CCO1 (stereo not shown) [Example 168, 2-{4-[(cyclopropylamino)sulfonyl]phenyl}-N-{[4-(3,4-dichlorobenzyl)morpholin-2-yl]methyl}acetamide]",greater than 5.0
18,"COC(=O)c1ccc2nn(CC(=O)NCC3CN(Cc4ccc(Cl)c(Cl)c4)CCO3)nc2c1 (stereo not shown) [Example 169, methyl 2-[2-({[4-(3,4-dichlorobenzyl)morpholin-2-yl]methyl}amino)-2-oxoethyl]-2H-1,2,3-benzotriazole-5-carboxylate]",greater than 5.0
19,"O=C(Cn1ccc2cccnc21)NCC1CN(Cc2ccc(Cl)c(Cl)c2)CCO1 (stereo not shown) [Example 170, N-{[4-(3,4-dichlorobenzyl)morpholin-2-yl]methyl}-2-(1H-pyrrolo[2,3-b]pyridin-1-yl)acetamide]",greater than 5.0
20,"O=C(Cn1nnc(-c2ccccn2)n1)NCC1CN(Cc2ccc(Cl)c(Cl)c2)CCO1 (stereo not shown) [Example 171, N-{[4-(3,4-dichlorobenzyl)morpholin-2-yl]methyl}-2-(5-pyridin-2-yl-2H-tetraazol-2-yl)acetamide]",greater than 5.0
21,"O=C(Cn1nnc(-c2cccnc2)n1)NCC1CN(Cc2ccc(Cl)c(Cl)c2)CCO1 (stereo not shown) [Example 172, N-{[4-(3,4-dichlorobenzyl)morpholin-2-yl]methyl}-2-(5-pyridin-3-yl-2H-tetraazol-2-yl)acetamide]",greater than 5.0
22,"O=Cc1cccc(-c2nnn(CC(=O)NCC3CN(Cc4ccc(Cl)c(Cl)c4)CCO3)n2)c1 (stereo not shown) [Example 173, N-{[4-(3,4-dichlorobenzyl)morpholin-2-yl]methyl}-2-[5-(3-formylphenyl)-2H-tetraazol-2-yl]acetamide]",greater than 5.0
23,"Cc1oc(-c2ccco2)nc1CC(=O)NC[C@H]1CN(Cc2ccc(Cl)c(Cl)c2)CCO1 [Example 175, N-{[(2S)-4-(3,4-dichlorobenzyl)morpholin-2-yl]methyl}-2-[2-(2-furyl)-5-methyl-1,3-oxazol-4-yl]acetamide]",greater than 5.0
24,"Cc1oc(-c2cccs2)nc1CC(=O)NC[C@H]1CN(Cc2ccc(Cl)c(Cl)c2)CCO1 [Example 176, N-{[(2S)-4-(3,4-dichlorobenzyl)morpholin-2-yl]methyl}-2-(5-methyl-2-thien-2-yl-1,3-oxazol-4-yl)acetamide]",greater than 5.0
25,"Cc1oc(-c2ccccc2)nc1CC(=O)NC[C@H]1CN(Cc2ccc(Cl)s2)CCO1 [Example 177, N-({(2S)-4-[(5-chlorothien-2-yl)methyl]morpholin-2-yl}methyl)-2-(5-methyl-2-phenyl-1,3-oxazol-4-yl)acetamide]",greater than 5.0
